# Results from the supplement of paper PMC8728848.
# This is one part of the list.
# B1: Sp8391B-bot-388-20-388 (Bacteroides ovatus) (protein)
# chain: GCQNNDENEQHYDNKLFISASNFTKEILFKAGDTNVETGLSVAIAKPEEHDIKVTMSPAPELLSTYKLAYYDETAVLLSEEHYSMPETSTTIKSGSIVSPELPIEFINTGELDIKTTYVLPVTIKSVEGIGVLQSAKTYYYVFRGASLINVVCNISRNRAYPDFKNDSKFNNLTENTMEILFKANSFPNTLNTLMGIESNYLLRIGDATIPNNQLQVATSVNNCTSADLQLESGKWYHVAVAFNKGNVKVYINGVEKLSGSTGKSSVSLGAKHTNEEDGSRCFWVGYSYKDDRYFDGVVSEVRIWNRALTAEEIQATNHFYTIEPESEGLIAYWKFDEGSGTVAKDYSVSGYDLTIEKEPKWESVSLPQ
# Legend:
# Experiment in all cases: glycan array binding signal (z-score within array); higher = stronger binding
# Settings in all cases: glycan notation: IUPAC condensed, linker removed
# [1] = target: Neu5Ac(a2-3)Gal(b1-4)GlcNAc(b1-6)GalNAc
# Procedure, shortened: (§1)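 Arrays were curated from the Consortium for Functional Glycomics database, 3228 in total, and kept only where the protein sequence was available. Binding is expressed as a within-array Z-score. This score was averaged across arrays of the same protein sequence at different concentrations or buffers and across linkers, and negative values can be read as non-binding.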
# [2] = target: Neu5Ac(a2-3)Gal(b1-4)GlcNAc(b1-6)[Gal(b1-3)]GalNAc
# Procedure, shortened: as §1
# [3] = target: Neu5Ac(a2-3)Gal(b1-4)GlcNAc(b1-6)[Neu5Ac(a2-3)Gal(b1-3)]GalNAc
# Procedure, shortened: as §1
# [4] = target: Neu5Ac(a2-3)Gal(b1-4)GlcNAc6S
# Procedure, shortened: as §1
# [5] = target: Neu5Ac(a2-3)Gal(b1-4)[Fuc(a1-3)]GlcNAc
# Procedure, shortened: as §1
# [6] = target: Neu5Ac(a2-3)Gal(b1-4)[Fuc(a1-3)]GlcNAc(b1-2)Man
# Procedure, shortened: as §1
# [7] = target: Neu5Ac(a2-3)Gal(b1-4)[Fuc(a1-3)]GlcNAc(b1-3)Gal
# Procedure, shortened: as §1
# [8] = target: Neu5Ac(a2-3)Gal(b1-4)[Fuc(a1-3)]GlcNAc(b1-3)Gal(b1-4)GlcNAc
# Procedure, shortened: as §1
# [9] = target: Neu5Ac(a2-3)Gal(b1-4)[Fuc(a1-3)]GlcNAc(b1-3)Gal(b1-4)[Fuc(a1-3)]GlcNAc(b1-3)Gal(b1-4)[Fuc(a1-3)]GlcNAc
# Procedure, shortened: as §1
# [10] = target: Neu5Ac(a2-3)Gal(b1-4)[Fuc(a1-3)]GlcNAc(b1-3)GalNAc
# Procedure, shortened: as §1
# [11] = target: Neu5Ac(a2-3)Gal(b1-4)[Fuc(a1-3)]GlcNAc(b1-6)[Gal(b1-3)]GalNAc
# Procedure, shortened: as §1
# [12] = target: Neu5Ac(a2-3)Gal(b1-4)[Fuc(a1-3)]GlcNAc(b1-6)[Neu5Ac(a2-3)Gal(b1-3)]GalNAc
# Procedure, shortened: as §1
# [13] = target: Neu5Ac(a2-3)Gal(b1-4)[Fuc(a1-3)]GlcNAc6S
# Procedure, shortened: as §1
# [14] = target: Neu5Ac(a2-3)Gal6S(b1-4)GlcNAc
# Procedure, shortened: as §1
# [15] = target: Neu5Ac(a2-3)Gal6S(b1-4)[Fuc(a1-3)]GlcNAc
# Procedure, shortened: as §1
# [16] = target: Neu5Ac(a2-3)GalNAc
# Procedure, shortened: as §1
# [17] = target: Neu5Ac(a2-3)GalNAc(b1-4)GlcNAc
# Procedure, shortened: as §1
# [18] = target: Neu5Ac(a2-3)[GalNAc(b1-4)]Gal(b1-4)Glc
# Procedure, shortened: as §1
# [19] = target: Neu5Ac(a2-3)[GalNAc(b1-4)]Gal(b1-4)GlcNAc
# Procedure, shortened: as §1
# [20] = target: Neu5Ac(a2-3)[GalNAc(b1-4)]Gal(b1-4)GlcNAc(b1-3)GalNAc
# Procedure, shortened: as §1
# [21] = target: Neu5Ac(a2-3)[Neu5Ac(a2-6)]GalNAc
# Procedure, shortened: as §1
# [22] = target: Neu5Ac(a2-6)Gal
# Procedure, shortened: as §1
# [23] = target: Neu5Ac(a2-6)Gal(b1-3)GlcNAc(b1-3)[Gal(b1-4)GlcNAc(b1-6)]Gal(b1-4)Glc
# Procedure, shortened: as §1
# [24] = target: Neu5Ac(a2-6)Gal(b1-4)Glc
# Procedure, shortened: as §1
# [25] = target: Neu5Ac(a2-6)Gal(b1-4)GlcNAc
# Procedure, shortened: as §1
# [26] = target: Neu5Ac(a2-6)Gal(b1-4)GlcNAc(b1-2)Man
# Procedure, shortened: as §1
# [27] = target: Neu5Ac(a2-6)Gal(b1-4)GlcNAc(b1-2)Man(a1-3)Man(b1-4)GlcNAc(b1-4)GlcNAc
# Procedure, shortened: as §1
# [28] = target: Neu5Ac(a2-6)Gal(b1-4)GlcNAc(b1-2)Man(a1-3)[Gal(b1-4)GlcNAc(b1-2)Man(a1-6)]Man(b1-4)GlcNAc(b1-4)GlcNAc
# Procedure, shortened: as §1
# [29] = target: Neu5Ac(a2-6)Gal(b1-4)GlcNAc(b1-2)Man(a1-3)[GlcNAc(b1-2)Man(a1-6)]Man(b1-4)GlcNAc(b1-4)GlcNAc
# Procedure, shortened: as §1
# [30] = target: Neu5Ac(a2-6)Gal(b1-4)GlcNAc(b1-2)Man(a1-3)[GlcNAc(b1-4)][Neu5Ac(a2-6)Gal(b1-4)GlcNAc(b1-2)Man(a1-6)]Man(b1-4)GlcNAc(b1-4)GlcNAc
# Procedure, shortened: as §1
# [31] = target: Neu5Ac(a2-6)Gal(b1-4)GlcNAc(b1-2)Man(a1-3)[Man(a1-6)]Man(b1-4)GlcNAc(b1-4)GlcNAc
# Procedure, shortened: as §1
binder,measurement,setting,value
B1,glycan array binding signal (z-score),[1],1.31
same,glycan array binding signal (z-score),[2],0.353
same,glycan array binding signal (z-score),[3],-0.62
same,glycan array binding signal (z-score),[4],-1.13
same,glycan array binding signal (z-score),[5],-0.693
same,glycan array binding signal (z-score),[6],-0.692
same,glycan array binding signal (z-score),[7],-0.21
same,glycan array binding signal (z-score),[8],1.29
same,glycan array binding signal (z-score),[9],-0.058
same,glycan array binding signal (z-score),[10],1.02
same,glycan array binding signal (z-score),[11],-0.244
same,glycan array binding signal (z-score),[12],0.854
same,glycan array binding signal (z-score),[13],-0.908
same,glycan array binding signal (z-score),[14],-0.501
same,glycan array binding signal (z-score),[15],-0.357
same,glycan array binding signal (z-score),[16],0.163
same,glycan array binding signal (z-score),[17],-0.763
same,glycan array binding signal (z-score),[18],0.131
same,glycan array binding signal (z-score),[19],-0.664
same,glycan array binding signal (z-score),[20],-0.113
same,glycan array binding signal (z-score),[21],-0.561
same,glycan array binding signal (z-score),[22],-0.089
same,glycan array binding signal (z-score),[23],6.14
same,glycan array binding signal (z-score),[24],-0.12
same,glycan array binding signal (z-score),[25],-0.355
same,glycan array binding signal (z-score),[26],0.49
same,glycan array binding signal (z-score),[27],-0.505
same,glycan array binding signal (z-score),[28],-0.496
same,glycan array binding signal (z-score),[29],-0.61
same,glycan array binding signal (z-score),[30],0.048
same,glycan array binding signal (z-score),[31],-0.91

# 2 entries from above, with bars between the fields.
binder | measurement | setting | value
B1 | glycan array binding signal (z-score) | [16] | 0.163
same | glycan array binding signal (z-score) | [31] | -0.91
